From patent publication EP0870499A1, “Oral use of (+)-0-Demethyltramadol as analgesic” (Grünenthal GmbH, priority 1997, dated 1998) come the findings set out here.

SMILES strings stand for the structures. Like-named read-outs stand apart in the source and are kept apart here.

The subject of data set [1] is männliche NMRI-Mäuse. The settings on record: mouse, in vivo.
Data set [2] concerns männliche NMRI-Mäuse. The data set can be described thus: Tail-flick test (radiant heat) in the mouse.
The subject of data set [3] is männliche NMRI-Mäuse. The data set can be described thus: Phenylquinone-induced writhing test in the mouse. On the technique in general: Writhing tests count abdominal constrictions after an irritant is injected.
The test system of data set [4] is männliche NMRI-Mäuse. The settings on record: mouse, in vivo. The source holds these as a separate data set.

By ED50 is commonly meant the midpoint of the dose-response relation. With `CN1CC[C@]23c4c5ccc(O)c4O[C@H]2[C@@H](O)C=C[C@H]3[C@H]1C5` [Morphin, reference compound], the “orale Wirkverfügbarkeit” value in data set [1] is recorded as 0,07; in data set [4], 0,06. Besides, the ED50 in data set [2] (iv, 20 min, read-out: ED50-Werte Tail-flick, Maus i.v.) worked out at 1.05 mg/kg; in data set [2] (po, 0.5 h, read-out: ED50-Werte Tail-flick, Maus p.o.), 18.9 mg/kg; in data set [3] (10 min, read-out: ED50-Werte Writhing, Maus i.v.) it was 0.33 mg/kg; in data set [3] (0.5 h, read-out: ED50-Werte Writhing, Maus p.o.) it was 4.7 mg/kg.
